Reference: PubChem BioAssay AID2685 (National Center for Advancing Translational Sciences (NCATS), 2010)
Among all 320,000 compounds or so, about 2,100 (0.66%) were called active. This list was built around the results that the source calls inconclusive (neither active nor inactive); the mix of calls is not that of the screen. Calls come from the whole dose curve; as a rule, active = well fitted inhibition curve with a large enough effect in the signal ratio, with a control signal flat (not every such curve was filed as active); inconclusive = small, poorly fitted or top-dose-only effect, or effect the other way, or a change in a side signal; inactive = flat fitted curve, though single readings scatter; the % refers to the signal ratio. Where the call is inconclusive, the potency comes from a doubtful curve fit.

Test: qHTS Assay for Lipid Storage Modulators in Drosophila S3 Cells
Settings: BODIPY lipid droplet fluorescence, 18-24 h, cells fed with added oleic acid; lipid storage change, negative = inhibition: at 46.1 µM (top of the series) unless noted
Procedure, shortened: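 Drosophila S3 cells loaded with oleic acid (400 uM, as added) and compounds at several concentrations; lipid droplets imaged by 488-nm laser-scanning cytometry, 500–530 nm intensity and object ratio to cell channel. Percent activity normalized to 20 uM Triacsin C.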
% is set by controls: 0 for no effect and ±100 for the full control effect; potency is the fitted concentration of half-maximal effect.

Potency, active:
c1ccc(-c2cnn3c(-c4ccccc4)c(-c4ccccc4)nc3n2)cc1 3.26 µM
CCNc1nc(NCC)n2c(SCC(=O)O)nnc2n1 29.1 µM
Cc1ccc(C(C(=O)NCc2ccc(F)cc2)N(Cc2ccco2)C(=O)c2snc(C(N)=O)c2N)o1 (configuration not stated) 13 µM

Potency, inconclusive:
CCOc1ccc(NC(=O)c2ccc(N3CC4CC(C3)c3cccc(=O)n3C4)c(NC(=O)c3cccnc3)c2)cc1 (configuration not stated) 9.2 µM [activator, partial curve]
Cc1cc2c(c(=O)n1Cc1ccccn1)C(C(C)C)C(C#N)=C(N)O2 (configuration not stated) 1.16 µM [activator, full curve, poor fit]
CCCOC(c1ccccc1)(c1ccc(C(F)(F)F)cc1)C(Oc1nc(C)cc(C)n1)C(=O)O (configuration not stated) 29.1 µM [activator, single point]
CCCOc1ccc(C(=O)Nc2cccnc2)cc1 32.6 µM [falling, single point]
CC1CCCC(NC(=S)NC(=O)c2ccccc2Br)C1C (configuration not stated) 16.4 µM [falling, partial curve, poor fit]
Cc1ccc(C)c(CN2C(=O)C(C)Oc3ccc(C)cc32)c1 (configuration not stated) 0.0651 µM [activator, partial curve, poor fit]
O=C1NN(c2ccccc2)C(=O)/C1=C\c1cccc(OC(=O)c2cccs2)c1 7.31 µM [falling, single point]
Cc1nc2oc3c(NCc4ccccc4)ncnc3c2c2c1COC(C)(C)C2 0.92 µM [activator, partial curve]
O=C(Nc1cccc2c1CCCC2)c1ccccc1Cl 20.6 µM [activator, single point]
CCOC1=C/C(=C/c2c(N)n3nc(S(=O)(=O)CC)sc3nc2=O)C=CC1=O 29.1 µM [falling, single point]
O=C(Nc1ccccc1-c1nc2ccccc2[nH]1)c1sc2ccccc2c1Cl 0.82 µM [falling, single point]
O=C(NC1CC2CCC(C1)N2Cc1ccccc1)c1ccccc1Cl (configuration not stated) 0.058 µM [activator, full curve]
CC1CCN(C(=O)CSc2nc(C3CC3)nc3ccccc23)CC1 0.58 µM [activator, single point]
CC(C)Oc1ccc(N2CC(C(=O)Nc3ccccn3)CC2=O)cc1 (configuration not stated) 6.51 µM [falling, single point]
O=C(N/N=C/c1ccco1)c1cc(-c2ccncc2)nc2ccccc12 3.26 µM [falling, single point]
O=C(NCc1ccccc1)c1c[nH]c2ccccc2c1=O 29.1 µM [falling, single point]
CCCOc1ccc(-c2nc(N)n[nH]2)cc1 29.1 µM [activator, single point]
CCN(CC)c1ccc(CNC(=O)C/C(C)=N/NC(=O)COc2ccc(C)cc2Br)cc1 2.91 µM [falling, single point]
CCOC(=O)c1ccc2c(c1)nc(COc1ccccc1C#N)n2CC 0.092 µM [activator, full curve, poor fit]
Cc1ccc(C(=O)Nc2ccc3c(c2)C(=O)N(C)C3=O)c(C)c1 9.2 µM [activator, partial curve, poor fit]
Cc1nn(CC(=O)NCC2CCCO2)c(=O)c2cc3ccccc3n12 (configuration not stated) 29.1 µM [falling, single point]
c1ccc(CNc2nc3ccccc3n3cnnc23)nc1 8.2 µM [activator, partial curve, poor fit]
COc1ccc(C(=O)CSc2nc3ncccc3[nH]2)cc1OC 10.3 µM [activator, partial curve, poor fit]
COc1ccccc1CCNC(=O)CCNS(=O)(=O)c1ccc(NC(C)=O)cc1 0.116 µM [falling, full curve]

Lipid storage change, negative = inhibition, inconclusive:
CCOn1c(=O)c(-c2ccc(OC)c(OC)c2)[n+]([O-])c2ccccc21 13.9%
OC(CN1CCCCC1)Cn1c2ccccc2c2cc(Br)ccc21 (configuration not stated) -17.4%
COc1cc(C(=O)NCCc2ccc(F)cc2)ccc1OCC(=O)N1CCOCC1 -29.8% [at 0.0737 µM]
COc1ccc2oc(=O)c(-c3nc(C)cs3)cc2c1 61.6%
S=c1[nH]nc(-c2cc(-c3ccco3)[nH]n2)n1-c1cccc2ccccc12 31.2%
Cc1ccccc1C(=O)OCC(=O)N(C)c1ccccc1 14.7%
Cc1cc(-c2nnc(SCC(=O)Nc3ccccc3C(F)(F)F)n2N)n[nH]1 188%
COc1cccc(NC(=O)CN(C)C(=O)c2cc(S(=O)(=O)N3CCCCCC3)ccc2OC)c1 12.2%
CCOc1ccc(S(=O)(=O)Nc2cc(Sc3ncn[nH]3)c3oc(=O)sc3c2)cc1 9.37%
COc1ccc(C(c2nnnn2C2CCCC2)N2CCN(C(=O)c3ccco3)CC2)cc1OC (configuration not stated) -30.8%
Cc1ccccc1C(=O)NNC(=O)c1cccn1C 6.09%
Nc1nc(SCC(=O)Nc2cccc(Oc3ccccc3)c2)n[nH]1 20.3%
COCCn1nnnc1SCC(=O)c1ccc(F)cc1 1.68%
O=C(NC(=S)Nc1ccc(F)cc1)C1CCCCC1 13.3%
COc1cc(/C=C/CN2CCC(CO)(CC3CCCCO3)CC2)ccc1O (configuration not stated) -26.5%
COC(=O)c1ccccc1NC(=O)CN1CCN(C(=O)c2ccco2)CC1 87%
COc1ccc(S(=O)(=O)N2CCSC2C)cc1C (configuration not stated) 21.1%
CN1CCN(S(=O)(=O)c2ccc(Oc3cccc(C(F)(F)F)c3)nc2)CC1 -15.2%
Cc1cc(C)nc(N/N=C/c2ccccc2OCc2ccc(Br)cc2)n1 90%
O=C1S/C(=C/c2ccc(N3CCOCC3)o2)C(=O)N1Cc1c(F)cccc1Cl -188%
O=C(/C=C/c1ccccc1Cl)Nc1ccccc1 0.806%
CCCOC(=O)/C(=C\C=C\c1ccco1)NC(=O)c1ccccc1 -4.67%
O=C(c1ccc(Cl)cc1)N(c1ccccn1)C1CCCCC1 -6.46%
COc1cccc(CN(C)C(=O)CN2C(=O)NC(c3ccccc3)(c3ccccc3)C2=O)c1 -5.78%
CC(C)NC(=O)c1cccc(C(F)(F)F)c1 -50.1% [at 0.0737 µM]
O=C(CSc1nnc(-c2ccccc2)o1)NCC1CCCCC1 -26.8%
Cc1cc2sc3ccccc3c(=O)c2c(C)c1O 18.3%
CCn1cc(S(=O)(=O)Nc2cc(C)ccc2F)cn1 -17.2%
Cc1nc(NN)c2c3c(sc2n1)COC(C)(C)C3 6.87%
COc1ccc(CNC(=O)CC2C(=O)NCCN2C2Cc3ccccc3C2)cc1 (configuration not stated) 21%
C=C(C)Cn1c(COc2ccccc2)nnc1SCC(=O)O -18.1%
COc1ccc2[nH]c(=O)c(CNc3ccccc3OC)cc2c1 -8.25%
NNc1nc2cc3c(cc2s1)OCCO3 -43.7%
COc1ccccc1CNC(=O)C1CCN(C(=O)[C@@H]2Cc3ccccc3CN2)CC1 -53.9%
CCOc1ccc(C(C)=O)cc1N1C(=O)C2C3C=CC(C3)C2C1=O (configuration not stated) 50.4%
O=C(/C=C/C(=O)N1CCc2ccccc2C1)N1CCc2ccccc2C1 -76.8%
CCC(C)n1c(=O)c(C(=O)Nc2ccccc2S(N)(=O)=O)c(O)c2ccccc21 (configuration not stated) 135%
N#CNc1nc(O)cc(=O)[nH]1 -40%
O=C(Cc1n[nH]c(=O)c2ccccc12)NC(c1ccccc1)c1ccccc1 29.1%
CC1(C)CCCC2=C1CC1C(=O)N(O)C(=O)C1C2 (configuration not stated) 37.7%
O=C1COc2ccc(C(=O)COC(=O)CNS(=O)(=O)c3cccc(F)c3)cc2N1 6.67%
CCCC(=O)O[C@]1(C(=O)CO)CC[C@H]2[C@@H]3CCC4=CC(=O)CC[C@]4(C)[C@H]3[C@@H](O)C[C@@]21C -4.64%
COc1ccc(-c2nn(-c3ccccc3)cc2/C=C/C(=O)O)cc1[N+](=O)[O-] 6.3%
CCNC(=O)COC(=O)Cc1ccc(Cl)cc1Cl 2.16%
Cc1cc(C(=O)N/N=C\c2cc(C(C)(C)C)ccc2O)n[nH]1 -62.2%
N=c1c(C(=O)NCc2ccc(F)cc2)cc2c(=O)n3ccccc3nc2n1CCCN1CCOCC1 26%
CCc1cc2c(=O)c(-c3ccon3)c(N)oc2cc1OC 19.9%
O=C(c1cc(-c2cccs2)on1)N1CCOCC1 -9.75%
NC(=O)C1CCN(C(=O)Cc2ccsc2)CC1 24%

Six compounds drawn at random from the list so far, as already listed:
Lipid storage change, negative = inhibition, inconclusive:
COc1ccc(-c2nn(-c3ccccc3)cc2/C=C/C(=O)O)cc1[N+](=O)[O-] 6.3%
CN1CCN(S(=O)(=O)c2ccc(Oc3cccc(C(F)(F)F)c3)nc2)CC1 -15.2%
NNc1nc2cc3c(cc2s1)OCCO3 -43.7%
CCc1cc2c(=O)c(-c3ccon3)c(N)oc2cc1OC 19.9%
O=C(c1cc(-c2cccs2)on1)N1CCOCC1 -9.75%
COc1ccccc1CNC(=O)C1CCN(C(=O)[C@@H]2Cc3ccccc3CN2)CC1 -53.9%

Following part:

Lipid storage change, negative = inhibition, inactive:
Cc1cccc(C)c1NC(=O)CN(C)C(=O)c1cccc(S(=O)(=O)N2CCN(C)CC2)c1 -25% [at 0.0737 µM]
